Experiment [1] addresses T1, growth hormone receptor (rabbit, wild type) (rabbit) (UniProt P19941).
T1 sequence: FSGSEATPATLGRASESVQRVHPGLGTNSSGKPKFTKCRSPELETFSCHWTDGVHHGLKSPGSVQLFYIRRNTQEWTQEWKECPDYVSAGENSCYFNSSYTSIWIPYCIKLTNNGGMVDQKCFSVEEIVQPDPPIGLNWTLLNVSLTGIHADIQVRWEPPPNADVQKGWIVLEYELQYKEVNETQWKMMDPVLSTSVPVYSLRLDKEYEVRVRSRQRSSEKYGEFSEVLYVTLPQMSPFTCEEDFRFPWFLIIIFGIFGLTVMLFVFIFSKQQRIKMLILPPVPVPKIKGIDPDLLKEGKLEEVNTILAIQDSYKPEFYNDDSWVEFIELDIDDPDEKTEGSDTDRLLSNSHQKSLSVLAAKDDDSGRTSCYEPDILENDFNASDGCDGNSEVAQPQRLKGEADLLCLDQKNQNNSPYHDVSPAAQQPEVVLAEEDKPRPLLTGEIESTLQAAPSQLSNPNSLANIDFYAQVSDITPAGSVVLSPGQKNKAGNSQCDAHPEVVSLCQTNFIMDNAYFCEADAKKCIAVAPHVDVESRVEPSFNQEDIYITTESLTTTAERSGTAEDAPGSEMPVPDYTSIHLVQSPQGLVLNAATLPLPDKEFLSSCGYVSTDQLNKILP
As to the kind of experiment: co-IP; GHR immunoprecipitated with anti-GHR and protein A beads from lysates of GHR-expressing Hek293 cells transfected with Flag-Jak2 constructs; lysis in 20 mM Tris pH 8.0, 150 mM NaCl, 0.5% NP40; blot with anti-Flag; cells with or without GH for 15 min at 37°C.

Chains of the proteins cited; added tags and fusions are not shown. Residues count along the entry.
UniProt Q62120: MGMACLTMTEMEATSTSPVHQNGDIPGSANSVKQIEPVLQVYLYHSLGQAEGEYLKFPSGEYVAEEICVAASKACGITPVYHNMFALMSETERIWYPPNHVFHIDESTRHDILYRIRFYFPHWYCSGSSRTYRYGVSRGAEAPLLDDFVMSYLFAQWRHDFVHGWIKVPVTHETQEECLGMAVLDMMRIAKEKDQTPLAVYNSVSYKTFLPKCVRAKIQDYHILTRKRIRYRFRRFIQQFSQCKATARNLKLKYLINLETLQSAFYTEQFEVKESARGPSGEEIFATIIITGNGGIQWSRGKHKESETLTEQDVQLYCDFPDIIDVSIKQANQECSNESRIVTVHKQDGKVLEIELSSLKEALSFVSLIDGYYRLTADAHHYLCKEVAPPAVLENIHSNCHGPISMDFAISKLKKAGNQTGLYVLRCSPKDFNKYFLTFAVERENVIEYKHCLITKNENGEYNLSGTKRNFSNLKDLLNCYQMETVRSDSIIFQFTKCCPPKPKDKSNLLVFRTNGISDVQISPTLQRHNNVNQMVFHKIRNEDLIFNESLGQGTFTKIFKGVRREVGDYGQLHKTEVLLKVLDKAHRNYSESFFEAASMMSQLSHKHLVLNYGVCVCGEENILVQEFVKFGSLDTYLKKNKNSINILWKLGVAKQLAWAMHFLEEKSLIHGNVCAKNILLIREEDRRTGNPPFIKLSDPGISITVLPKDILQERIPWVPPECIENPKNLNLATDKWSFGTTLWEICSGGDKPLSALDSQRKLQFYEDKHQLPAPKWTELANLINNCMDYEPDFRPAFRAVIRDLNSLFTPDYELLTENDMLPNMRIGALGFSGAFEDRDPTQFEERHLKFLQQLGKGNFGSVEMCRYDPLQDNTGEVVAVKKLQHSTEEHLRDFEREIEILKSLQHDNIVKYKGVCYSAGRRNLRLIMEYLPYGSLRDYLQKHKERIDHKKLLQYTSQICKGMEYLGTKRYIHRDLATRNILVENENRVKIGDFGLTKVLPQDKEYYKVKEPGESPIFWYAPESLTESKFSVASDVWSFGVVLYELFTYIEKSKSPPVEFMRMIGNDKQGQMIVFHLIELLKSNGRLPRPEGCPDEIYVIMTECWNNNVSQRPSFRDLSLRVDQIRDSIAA
UniProt P01241, residues 27-217: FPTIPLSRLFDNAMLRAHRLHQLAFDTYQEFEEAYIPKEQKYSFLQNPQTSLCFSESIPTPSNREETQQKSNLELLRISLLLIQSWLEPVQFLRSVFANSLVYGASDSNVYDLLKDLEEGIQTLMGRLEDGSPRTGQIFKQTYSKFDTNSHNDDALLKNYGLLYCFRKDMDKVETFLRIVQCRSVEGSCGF

Experiment [2] concerns the target T2, GHR-Rluc (rabbit) (UniProt P19941).
T2 sequence: T1 sequence
Description: FRET or BRET; BRET in living Hek293-TR cells stably expressing GHR-Rluc (donor) and doxycycline-induced YFP-Jak2 (acceptor); ViviRen 60 µM, 37°C, PBS with 0.1% glucose and 25 mM Hepes; without GH or with 200 ng/ml hGH (0-4 min, 10-14 min).

For experiment [3], the target named is T1, growth hormone receptor (rabbit, wild type) (rabbit). Description: labelling of cells with fluorescent ligand (Cy3-GH), confocal microscopy; GHR-expressing Hek293 cells incubated with Cy3-GH for 15 min at 37°C; Hek293 cells without GHR as control (not shown); only the binder purified.

No constants are given. Whether binding was seen depends on the method and setting. For part of these data: In cells and extracts the contact can be indirect. Some results given as binding are weak or reduced against the parent protein; the word gives no strength. For part of these data: Sequences can lack the tags named with a protein.

For “Flag-tagged wild-type mouse Jak2 (from UniProt Q62120 1-1132) (enzyme)”, in experiment [1], the binding entry is on record as “binds”. “YFP-Jak2 (wt) (from UniProt Q62120 1-1132) (enzyme)”: in experiment [2], the binding entry was “binds”. Turning to “Cy3-labelled growth hormone (from UniProt P01241 27-217) (ligand)”, the binding entry in experiment [3] was “binds”.

(Values after PMC3036580.)
